# Measurements published in publication PMC6675122, “N-terminal β-strand underpins biochemical specialization of an ATG8 isoform” (PLoS Biology, 2019).
# Amino acid sequences for entries named in this document (tags omitted). Residues count along the entry.
# UniProt M1C146, residues 5-114: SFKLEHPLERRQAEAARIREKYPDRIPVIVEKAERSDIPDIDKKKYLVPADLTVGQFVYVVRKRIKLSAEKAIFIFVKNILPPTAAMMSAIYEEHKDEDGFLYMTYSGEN
# UniProt D0NBE6, residues 20-381: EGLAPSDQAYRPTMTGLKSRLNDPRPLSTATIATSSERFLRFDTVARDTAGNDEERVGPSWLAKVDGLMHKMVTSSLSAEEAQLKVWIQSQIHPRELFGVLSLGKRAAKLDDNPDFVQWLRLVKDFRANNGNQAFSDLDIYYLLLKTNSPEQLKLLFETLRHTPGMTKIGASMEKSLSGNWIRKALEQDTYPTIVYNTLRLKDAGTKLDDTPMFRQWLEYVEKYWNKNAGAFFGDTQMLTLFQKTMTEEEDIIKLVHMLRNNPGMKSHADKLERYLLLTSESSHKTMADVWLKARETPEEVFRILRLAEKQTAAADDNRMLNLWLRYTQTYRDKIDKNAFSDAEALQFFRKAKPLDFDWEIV
# No constants are given. Whether binding was seen depends on the method and setting. Binding seen in cells or lysates may run through a third protein. Some entries that bind do so weakly or less than the wild type.
# Biological target: GFP:ATG8-2.2 (Solanum tuberosum (potato)) (UniProt M1C146)
# Test: co-IP
substance,measurement,value
RFP:PiPexRD54 (from UniProt D0NBE6 20-381),binding,binds
